# In all, about 390,000 compounds went through this assay and about 760 (0.19%) were called active. Inconclusive results, whose numbers are uncertain, are shown with a selection of clear calls. Calls follow the shape of the dose curve; as a rule, active = well fitted inhibition curve with a large enough effect; inconclusive = small, poorly fitted or top-dose-only effect; inactive = flat fitted curve, though single readings scatter. A potency beside an inconclusive call is a rough fit, not a confirmed value.
# Assay: qHTS for Inhibitors of Vif-A3F Interactions: qHTS; also: nearly all actives have a fitted effect of over 65% in size; as to activity, negative = active: % of control where 0% means no effect
# Settings: HeLa A3F-eYFP + Vif (tagged APOBEC3F with the HIV-1 protein that degrades it), YFP fluorescence increase; series mostly up to 46.1 µM; activity, negative = active: at the top concentration
# Outline: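 Fluorescence increase (Ex 488/Em 500-530) after overnight compound treatment at 37 deg C flags inhibition of Vif-driven A3F-eYFP loss in stable HeLa A3F-eYFP/Vif cells seeded overnight beforehand.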
# Potency is read from the fitted curve at half-maximal effect.
SMILES,"activity, negative = active",Potency
CCOC(=O)c1c(C)[nH]c(-c2csc(N)n2)c1C,inactive: -13.2%,
O=C1[C@@H]2[C@@H](CN3CN(c4ccccc4)N=C(c4ccccc4)[C@@]23c2ccccc2)C(=O)N1c1ccccc1,,"inconclusive: 12.6 µM [inhibitor, partial curve]"
CC(=O)Oc1ccc(/C=C2/SC(=S)N(Cc3ccccc3)C2=O)cc1,,"inconclusive: 3.55 µM [inhibitor, single point]"
COc1ccc(C(=O)Nc2ccc(N3CCN(C(=O)c4ccccc4C)CC3)cc2)cc1,,"inconclusive: 12.6 µM [inhibitor, single point]"
COc1cc2c(cc1OC)C(c1ccc([N+](=O)[O-])cc1)NCC2 (stereo not drawn),inactive: -6.98%,
Cc1ccc(C(=O)Nc2cccc(C(F)(F)F)c2)cc1NC(=O)c1cnnc2ccccc12,,"inconclusive: 28.2 µM [inhibitor, single point]"
CCOC(=O)CSc1nc2cc(OCC)ccc2cc1C#N,,"inconclusive: 17.8 µM [inhibitor, single point]"
Cc1ccc(-n2nc3c(N4CCC(C(=O)NCCC(C)C)CC4)nnc(C)c3c2C)cc1,,"inconclusive: 35.5 µM [inhibitor, single point]"
Cn1c(=O)c2c(SCC(N)=O)nc(CC(C)(C)C)nc2n(C)c1=O,,"inconclusive: 3.16 µM [inhibitor, single point]"
COc1ccc(/C=C2\SC(=Nc3ccccc3Cl)NC2=O)c(OC)c1,,"inconclusive: 35.5 µM [inhibitor, single point]"
COc1ccc(-n2c(=S)[nH]c3ccccc32)cc1,inactive: 0.158%,
C/C(=N\NC(=O)COc1ccc(C)cc1C(C)C)c1cc2ccccc2o1,,"inconclusive: 5.62 µM [inhibitor, partial curve]"
CCOC(=O)N1CCC(N2CCN(C3CCCC3)C(CCO)C2)CC1 (stereo not drawn),,"inconclusive: 6.31 µM [inhibitor, single point]"
CCCC[n+]1ccn(C2=C([O-])c3ccccc3C(=O)/C2=N\S(=O)(=O)c2ccc(Br)cc2)c1,,"inconclusive: 35.5 µM [inhibitor, single point]"
COc1ccc(C2c3c(-c4ccc(F)cc4)n[nH]c3C(=O)N2c2ccccc2)cc1OC (stereo not drawn),inactive: 0.811%,
O=C(O)c1ccc2c(=O)n3c(nc2c1)/C(=C/c1cccc(Cl)c1Cl)CC3,,"inconclusive: 5.01 µM [inhibitor, single point]"
CCCCC(=O)NC(c1ccc(OC)cc1)c1ccc2cccnc2c1O (stereo not drawn),,"inconclusive: 35.5 µM [inhibitor, single point]"
Cc1ccc(NS(=O)(=O)c2ccc(C(=O)NCCCN3CCCC3=O)cc2)cc1,,"inconclusive: 11.2 µM [inhibitor, single point]"
COc1ccc2c(c1)[C@H]1[C@H](CO2)[C@H](c2ccccc2)[C@]2(C)C(=O)Nc3ccccc3C(=O)N12,inactive: -6.35%,
CCCn1c(=N)c(S(=O)(=O)c2ccccc2)cc2c(=O)n3ccccc3nc21,,"inconclusive: 28.2 µM [inhibitor, single point]"
CN(C(=O)c1cccc(C(=O)N(C)c2ccccc2)c1)c1ccccc1,inactive: 4.48%,
O=C(O)Cc1sc(NCCc2ccccc2)nc1-c1ccc(F)cc1,,"inconclusive: 35.5 µM [inhibitor, single point]"
N#CC1=C(N)n2c(s/c(=C\c3cccs3)c2=O)=C(C#N)C1c1cccs1 (stereo not drawn),,"inconclusive: 31.6 µM [inhibitor, single point]"

# Among those listed so far, two have an aryl thioether with sulfur outside any ring.
SMILES,"activity, negative = active",Potency
CCOC(=O)CSc1nc2cc(OCC)ccc2cc1C#N,,"inconclusive: 17.8 µM [inhibitor, single point]"
Cn1c(=O)c2c(SCC(N)=O)nc(CC(C)(C)C)nc2n(C)c1=O,,"inconclusive: 3.16 µM [inhibitor, single point]"

# (listing goes on)

SMILES,"activity, negative = active",Potency
CCOc1ccc(N(CC(=O)Nc2ccc(C)cc2)S(=O)(=O)c2c(C)noc2C)cc1,inactive: -11.7%,
COc1cnc(-c2ccccn2)nc1Sc1ccccc1,,"inconclusive: 12.6 µM [inhibitor, partial curve, poor fit]"
O=C(NC(=S)Nc1cccnc1Cl)c1ccc(F)cc1,,"inconclusive: 35.5 µM [inhibitor, single point]"
N#C/C(=C(\O)c1cc(Cl)sc1Cl)c1nc2ccccc2[nH]1,,"inconclusive: 25.1 µM [inhibitor, partial curve, poor fit]"
Cn1c(=O)c2c(nc(NCC3CCCC(CN)C3)n2Cc2ccc(Cl)cc2Cl)n(C)c1=O (stereo not drawn),,"inconclusive: 25.1 µM [inhibitor, single point]"
CCOC(=O)C1CCN(c2cc(C)nc3cc(-c4cccc(F)c4)nn23)CC1,inactive: 2.78%,
Cc1sc(NC(=O)Cn2[nH]c(=O)c3ccccc3c2=O)nc1-c1ccccc1,,"inconclusive: 35.5 µM [inhibitor, single point]"
CC1=C(c2ccc(C(C)C)cc2)S(=O)(=O)NC1=NCc1ccccc1Br,,"inconclusive: 14.1 µM [inhibitor, single point]"
C=CCn1c(SCC(C)=O)nc2scc(-c3ccco3)c2c1=O,,"inconclusive: 35.5 µM [inhibitor, single point]"
Cc1nnc(NC(=O)CCS(=O)(=O)c2ccccc2)s1,inactive: -11.4%,
Oc1ccc(Nc2nc3ccccc3nc2Nc2ccc(O)cc2)cc1,,"inconclusive: 2.82 µM [inhibitor, full curve, poor fit]"
N#CSC(c1ccccc1)c1nc2ccccc2[nH]c1=O (stereo not drawn),,"inconclusive: 35.5 µM [inhibitor, partial curve, poor fit]"
Oc1ccc(Cl)cc1/C=C/c1ccc2cccc(O)c2n1,,"inconclusive: 11.2 µM [inhibitor, single point]"
CCCCc1cc(=O)oc2c(CN3CCN(C)CC3)c(O)ccc12,inactive: -1.47%,
Fc1ccccc1Nc1nc2ccccc2n2nnnc12,,active: 25.1 µM
C=CCN1C(=O)c2ccc(C(=O)Nc3ccccn3)cc2C1=O,,"inconclusive: 6.31 µM [inhibitor, partial curve, poor fit]"
Cc1cccc(N2C(=O)c3cccc4c(N)ccc(c34)C2=O)c1,,"inconclusive: 3.55 µM [inhibitor, partial curve, poor fit]"
CCOc1ccc(N(C)S(=O)(=O)c2cc(-c3cc(C)no3)ccc2CC)cc1,inactive: 3.56%,
C[C@@H](NC(=O)c1nc[nH]c1C(=O)N[C@@H](Cc1ccccc1)C(=O)OC(C)(C)C)c1ccccc1,inactive: -0.237%,
COc1cc(OC)c(Nc2nc3ccccc3nc2-n2nc(C)cc2C)cc1Cl,,"inconclusive: 35.5 µM [inhibitor, single point]"
COc1cccc(C(c2c(C)[nH]n(-c3ccccc3)c2=O)c2c(C)[nH]n(-c3ccccc3)c2=O)c1OC,inactive: -17.8%,
Cc1cc(NC2CCCCC2)nc2ccccc12,inactive: 1.07%,
O=C(N/N=C/c1cc(Br)ccc1OC(=O)c1ccc(Br)cc1)c1ccncc1,,"inconclusive: 2.82 µM [inhibitor, partial curve, poor fit]"

SMILES,"activity, negative = active",Potency
Cc1cccc(N=C2NC(=O)/C(=C/c3cn(C)c4ccccc34)S2)c1,,"inconclusive: 35.5 µM [inhibitor, single point]"
CC(=O)n1c(C=Nc2ccc(Cl)cc2)c(O)c2ccccc21,,"inconclusive: 3.16 µM [inhibitor, partial curve, poor fit]"
CCOc1ccc(OCC)c(NC(=O)CCC(=O)N2CCOc3ccccc32)c1,inactive: 1.61%,
COCCNC(=O)CCN1C(=O)c2cccnc2Oc2ccc(C)cc21,inactive: -7.11%,
Cc1ccc(-n2ncc3c(=O)n(CC(N)=O)cnc32)cc1,,"inconclusive: 7.94 µM [inhibitor, partial curve, poor fit]"
CCN(CC)c1ccc(/C=C(/C#N)C(=O)NC(C)C)o1,,"inconclusive: 22.4 µM [inhibitor, partial curve, poor fit]"
O=C(Nc1ccccc1)N1CCC(c2ccccc2)C1 (stereo not drawn),inactive: 1.01%,
CC(OC(=O)c1ccc2ccccc2c1)C(=O)N(C)Cc1ccccc1 (stereo not drawn),inactive: -6.02%,
CON(C)C(=O)CC1(CN(Cc2ccccc2)C(=O)OC(C)(C)C)CCCCC1,,"inconclusive: 35.5 µM [inhibitor, single point]"
COc1ccc(-c2[nH]ncc2-c2csc(C)n2)c(O)c1,,"inconclusive: 3.55 µM [inhibitor, single point]"
CC(=O)c1c(C)nc2ccc([N+](=O)[O-])cc2c1-c1ccccc1,,"inconclusive: 6.31 µM [inhibitor, single point]"
C=CCn1c(C23CC4CC(CC(C4)C2)C3)n[nH]c1=S,,"inconclusive: 35.5 µM [inhibitor, single point]"
CCCC1=NN(c2ccc([N+](=O)[O-])cc2)C(=O)/C1=C\N(C)C,inactive: 13.1%,
CC(=O)N1c2ccc(S(=O)(=O)N3CCC(C(=O)Nc4ccc(C)cn4)CC3)cc2CC1C (stereo not drawn),inactive: 5.19%,
O=C(CCCn1c(=O)c2sccc2n(Cc2cccc(Cl)c2)c1=O)NCc1ccc2c(c1)OCO2,,"inconclusive: 35.5 µM [inhibitor, single point]"
CC1CCCCN1CC(=O)c1c[nH]c2ccccc12 (stereo not drawn),,"inconclusive: 0.562 µM [inhibitor, full curve, poor fit]"
Cc1csc(SCC(=O)Nc2ccc(S(=O)(=O)N3CCCC3)cc2)n1,inactive: 1.04%,
COCCn1c(=N)c(C(=O)NCCc2ccc(OC)cc2)cc2c(=O)n3cccc(C)c3nc21,inactive: -20.2%,
NC(=S)N/N=C/c1ccc(-c2ccc([N+](=O)[O-])cc2)o1,,"inconclusive: 25.1 µM [inhibitor, single point]"
CCOc1ccccc1NC(=O)CCCc1ccc(OC)c(C)c1,,"inconclusive: 35.5 µM [inhibitor, single point]"
Cc1nc(CSc2nsc(/C=C/N(C)C)c2C#N)cs1,,"inconclusive: 2.82 µM [inhibitor, full curve, poor fit]"
O=C(c1cccnc1)N1CCN(C/C=C/c2ccccc2)CC1,,"inconclusive: 35.5 µM [inhibitor, single point]"

# Of the compounds above, these contain a Cl atom:
SMILES,"activity, negative = active",Potency
COc1ccc(/C=C2\SC(=Nc3ccccc3Cl)NC2=O)c(OC)c1,,"inconclusive: 35.5 µM [inhibitor, single point]"
O=C(O)c1ccc2c(=O)n3c(nc2c1)/C(=C/c1cccc(Cl)c1Cl)CC3,,"inconclusive: 5.01 µM [inhibitor, single point]"
O=C(NC(=S)Nc1cccnc1Cl)c1ccc(F)cc1,,"inconclusive: 35.5 µM [inhibitor, single point]"
N#C/C(=C(\O)c1cc(Cl)sc1Cl)c1nc2ccccc2[nH]1,,"inconclusive: 25.1 µM [inhibitor, partial curve, poor fit]"
Cn1c(=O)c2c(nc(NCC3CCCC(CN)C3)n2Cc2ccc(Cl)cc2Cl)n(C)c1=O (stereo not drawn),,"inconclusive: 25.1 µM [inhibitor, single point]"
Oc1ccc(Cl)cc1/C=C/c1ccc2cccc(O)c2n1,,"inconclusive: 11.2 µM [inhibitor, single point]"
COc1cc(OC)c(Nc2nc3ccccc3nc2-n2nc(C)cc2C)cc1Cl,,"inconclusive: 35.5 µM [inhibitor, single point]"
CC(=O)n1c(C=Nc2ccc(Cl)cc2)c(O)c2ccccc21,,"inconclusive: 3.16 µM [inhibitor, partial curve, poor fit]"
O=C(CCCn1c(=O)c2sccc2n(Cc2cccc(Cl)c2)c1=O)NCc1ccc2c(c1)OCO2,,"inconclusive: 35.5 µM [inhibitor, single point]"

# Source: PubChem BioAssay AID602313 (National Center for Advancing Translational Sciences (NCATS), 2012)
